Data from the supplement of paper PMC10849652.
Some of the results follow.

By UniProt entry, the sequences of proteins in these tests, tags left out. Where a name states a change or a piece, a line headed by the entry shows the natural chain unless it says otherwise.
UniProt Q7Z7A3: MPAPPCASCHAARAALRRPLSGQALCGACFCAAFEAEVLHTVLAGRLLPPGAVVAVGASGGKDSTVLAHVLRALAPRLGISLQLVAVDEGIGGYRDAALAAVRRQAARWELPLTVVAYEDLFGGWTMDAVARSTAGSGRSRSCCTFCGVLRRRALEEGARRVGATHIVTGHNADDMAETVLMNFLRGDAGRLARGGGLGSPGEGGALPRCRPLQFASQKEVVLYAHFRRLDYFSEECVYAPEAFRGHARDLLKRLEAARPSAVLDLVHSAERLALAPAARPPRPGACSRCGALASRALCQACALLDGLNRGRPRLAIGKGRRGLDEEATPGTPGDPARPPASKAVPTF
UniProt P00167, whole entry, looked up: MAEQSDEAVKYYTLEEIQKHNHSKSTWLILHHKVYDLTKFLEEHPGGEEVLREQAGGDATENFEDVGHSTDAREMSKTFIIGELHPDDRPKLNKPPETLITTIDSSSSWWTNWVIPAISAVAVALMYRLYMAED
UniProt Q9UBR2: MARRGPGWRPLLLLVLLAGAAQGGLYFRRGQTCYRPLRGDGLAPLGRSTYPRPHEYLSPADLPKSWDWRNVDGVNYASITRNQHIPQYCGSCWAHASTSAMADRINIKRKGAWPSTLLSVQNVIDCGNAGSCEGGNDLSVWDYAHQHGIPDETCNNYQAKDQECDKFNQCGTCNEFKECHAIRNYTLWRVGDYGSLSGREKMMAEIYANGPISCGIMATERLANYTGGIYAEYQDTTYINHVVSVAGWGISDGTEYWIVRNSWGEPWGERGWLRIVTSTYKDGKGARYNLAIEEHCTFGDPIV
UniProt Q8WUE5: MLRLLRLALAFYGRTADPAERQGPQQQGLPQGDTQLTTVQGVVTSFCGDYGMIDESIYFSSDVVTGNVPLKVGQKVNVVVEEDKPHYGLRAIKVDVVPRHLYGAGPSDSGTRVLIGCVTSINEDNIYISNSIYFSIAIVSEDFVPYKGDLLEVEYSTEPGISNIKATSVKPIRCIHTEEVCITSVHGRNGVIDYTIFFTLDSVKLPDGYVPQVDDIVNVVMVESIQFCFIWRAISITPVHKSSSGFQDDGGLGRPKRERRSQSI
UniProt Q9NV06: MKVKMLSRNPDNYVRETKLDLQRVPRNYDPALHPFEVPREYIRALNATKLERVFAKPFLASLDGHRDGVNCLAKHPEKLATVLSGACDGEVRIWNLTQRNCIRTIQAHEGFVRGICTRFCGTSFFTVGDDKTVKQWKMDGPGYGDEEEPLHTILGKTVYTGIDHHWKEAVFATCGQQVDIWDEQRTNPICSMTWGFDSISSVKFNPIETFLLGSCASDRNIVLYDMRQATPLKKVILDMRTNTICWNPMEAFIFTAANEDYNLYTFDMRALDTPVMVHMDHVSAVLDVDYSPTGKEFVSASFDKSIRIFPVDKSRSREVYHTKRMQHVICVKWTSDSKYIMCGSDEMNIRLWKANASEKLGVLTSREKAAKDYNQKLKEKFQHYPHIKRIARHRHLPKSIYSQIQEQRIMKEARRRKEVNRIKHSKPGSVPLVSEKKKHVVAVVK
UniProt Q16643: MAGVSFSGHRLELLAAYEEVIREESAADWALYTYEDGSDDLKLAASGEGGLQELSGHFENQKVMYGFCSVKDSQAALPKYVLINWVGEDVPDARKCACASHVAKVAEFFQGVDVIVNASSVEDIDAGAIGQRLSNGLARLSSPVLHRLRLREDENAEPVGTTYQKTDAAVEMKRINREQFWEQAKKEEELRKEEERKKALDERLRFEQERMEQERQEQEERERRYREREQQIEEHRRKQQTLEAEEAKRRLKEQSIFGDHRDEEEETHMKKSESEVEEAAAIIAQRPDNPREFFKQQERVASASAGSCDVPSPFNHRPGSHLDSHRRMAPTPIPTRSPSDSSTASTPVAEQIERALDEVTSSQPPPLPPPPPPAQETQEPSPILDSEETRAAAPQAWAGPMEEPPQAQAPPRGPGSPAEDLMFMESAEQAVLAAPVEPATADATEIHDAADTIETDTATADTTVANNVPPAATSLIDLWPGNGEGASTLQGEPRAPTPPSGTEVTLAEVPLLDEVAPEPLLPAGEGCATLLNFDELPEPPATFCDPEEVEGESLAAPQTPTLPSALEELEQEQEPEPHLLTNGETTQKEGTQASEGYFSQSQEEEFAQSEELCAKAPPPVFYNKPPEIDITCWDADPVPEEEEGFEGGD
UniProt P09668: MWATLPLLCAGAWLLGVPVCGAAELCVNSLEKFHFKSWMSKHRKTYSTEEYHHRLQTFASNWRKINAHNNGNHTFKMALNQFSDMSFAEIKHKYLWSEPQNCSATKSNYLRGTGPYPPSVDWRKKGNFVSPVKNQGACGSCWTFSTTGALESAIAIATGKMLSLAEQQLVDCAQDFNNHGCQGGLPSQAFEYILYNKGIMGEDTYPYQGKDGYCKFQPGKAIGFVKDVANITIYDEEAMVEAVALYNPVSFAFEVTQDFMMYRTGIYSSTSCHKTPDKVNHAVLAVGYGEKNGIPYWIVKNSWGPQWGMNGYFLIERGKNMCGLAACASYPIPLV
UniProt Q9UER7, whole entry, looked up: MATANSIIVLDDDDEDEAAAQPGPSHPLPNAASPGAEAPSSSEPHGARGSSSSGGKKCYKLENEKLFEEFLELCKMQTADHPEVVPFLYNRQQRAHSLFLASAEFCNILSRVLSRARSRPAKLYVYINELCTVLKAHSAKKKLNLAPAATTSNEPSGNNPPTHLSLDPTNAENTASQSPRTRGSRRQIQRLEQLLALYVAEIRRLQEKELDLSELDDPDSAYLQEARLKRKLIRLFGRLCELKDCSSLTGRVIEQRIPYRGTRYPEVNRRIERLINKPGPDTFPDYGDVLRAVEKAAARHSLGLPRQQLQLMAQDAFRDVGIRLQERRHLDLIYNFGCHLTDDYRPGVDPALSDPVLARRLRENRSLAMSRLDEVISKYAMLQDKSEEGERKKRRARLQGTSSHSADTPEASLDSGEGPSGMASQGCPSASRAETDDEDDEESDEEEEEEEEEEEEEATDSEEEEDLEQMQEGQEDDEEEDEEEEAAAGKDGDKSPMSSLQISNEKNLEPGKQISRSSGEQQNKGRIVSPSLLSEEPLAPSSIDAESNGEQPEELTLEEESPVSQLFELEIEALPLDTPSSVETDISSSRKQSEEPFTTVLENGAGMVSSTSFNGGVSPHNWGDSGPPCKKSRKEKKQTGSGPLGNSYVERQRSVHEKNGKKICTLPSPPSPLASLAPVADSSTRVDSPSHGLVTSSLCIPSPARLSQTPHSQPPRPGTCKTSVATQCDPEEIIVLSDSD
UniProt Q9NXE8: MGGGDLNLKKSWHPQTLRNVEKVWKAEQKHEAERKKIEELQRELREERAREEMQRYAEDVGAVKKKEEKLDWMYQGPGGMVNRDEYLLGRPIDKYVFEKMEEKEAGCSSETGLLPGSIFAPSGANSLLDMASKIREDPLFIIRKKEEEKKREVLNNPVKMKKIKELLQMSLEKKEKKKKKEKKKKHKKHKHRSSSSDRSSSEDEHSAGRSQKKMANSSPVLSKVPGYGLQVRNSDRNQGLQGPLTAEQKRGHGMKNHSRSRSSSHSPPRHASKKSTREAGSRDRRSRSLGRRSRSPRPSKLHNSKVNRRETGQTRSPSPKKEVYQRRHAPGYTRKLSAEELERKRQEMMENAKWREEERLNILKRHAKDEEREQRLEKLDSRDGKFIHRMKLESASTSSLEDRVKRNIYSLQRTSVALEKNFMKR
UniProt P10619: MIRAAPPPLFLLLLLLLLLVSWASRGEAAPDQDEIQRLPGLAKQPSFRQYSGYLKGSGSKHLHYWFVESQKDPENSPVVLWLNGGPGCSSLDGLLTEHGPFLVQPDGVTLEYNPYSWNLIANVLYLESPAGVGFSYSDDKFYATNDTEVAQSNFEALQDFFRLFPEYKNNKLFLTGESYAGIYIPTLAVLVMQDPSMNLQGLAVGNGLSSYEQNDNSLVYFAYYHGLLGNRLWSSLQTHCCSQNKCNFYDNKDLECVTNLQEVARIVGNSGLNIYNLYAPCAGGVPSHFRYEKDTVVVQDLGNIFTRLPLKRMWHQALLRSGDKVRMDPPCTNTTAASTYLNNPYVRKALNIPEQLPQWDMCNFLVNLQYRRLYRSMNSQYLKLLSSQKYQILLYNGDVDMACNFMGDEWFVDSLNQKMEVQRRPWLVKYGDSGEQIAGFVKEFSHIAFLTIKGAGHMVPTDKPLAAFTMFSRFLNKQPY
UniProt O60716: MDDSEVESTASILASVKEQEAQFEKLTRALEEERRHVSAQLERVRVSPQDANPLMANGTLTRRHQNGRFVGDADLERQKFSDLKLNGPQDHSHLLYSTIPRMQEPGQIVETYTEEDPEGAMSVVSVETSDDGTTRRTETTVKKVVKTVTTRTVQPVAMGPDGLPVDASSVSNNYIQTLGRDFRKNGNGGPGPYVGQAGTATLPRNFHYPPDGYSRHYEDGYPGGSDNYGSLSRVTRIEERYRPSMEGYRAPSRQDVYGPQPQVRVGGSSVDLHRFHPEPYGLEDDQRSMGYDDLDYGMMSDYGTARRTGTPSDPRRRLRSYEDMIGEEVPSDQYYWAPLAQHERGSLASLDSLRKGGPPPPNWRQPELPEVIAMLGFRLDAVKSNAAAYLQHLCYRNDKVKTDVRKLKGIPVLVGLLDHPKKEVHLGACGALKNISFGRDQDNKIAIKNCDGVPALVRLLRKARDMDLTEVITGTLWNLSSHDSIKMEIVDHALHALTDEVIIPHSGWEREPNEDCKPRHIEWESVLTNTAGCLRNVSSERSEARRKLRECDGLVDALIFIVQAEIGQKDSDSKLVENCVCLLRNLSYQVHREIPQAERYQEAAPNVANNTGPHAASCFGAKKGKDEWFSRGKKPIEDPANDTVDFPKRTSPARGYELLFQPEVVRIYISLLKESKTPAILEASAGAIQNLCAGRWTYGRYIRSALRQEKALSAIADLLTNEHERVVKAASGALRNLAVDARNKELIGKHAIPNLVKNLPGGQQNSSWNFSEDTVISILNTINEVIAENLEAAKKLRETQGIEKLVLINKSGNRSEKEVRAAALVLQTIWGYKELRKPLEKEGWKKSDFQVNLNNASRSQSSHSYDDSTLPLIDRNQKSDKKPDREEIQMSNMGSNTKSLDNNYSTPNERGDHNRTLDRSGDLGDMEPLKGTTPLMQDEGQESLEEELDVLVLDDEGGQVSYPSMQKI
UniProt P53355: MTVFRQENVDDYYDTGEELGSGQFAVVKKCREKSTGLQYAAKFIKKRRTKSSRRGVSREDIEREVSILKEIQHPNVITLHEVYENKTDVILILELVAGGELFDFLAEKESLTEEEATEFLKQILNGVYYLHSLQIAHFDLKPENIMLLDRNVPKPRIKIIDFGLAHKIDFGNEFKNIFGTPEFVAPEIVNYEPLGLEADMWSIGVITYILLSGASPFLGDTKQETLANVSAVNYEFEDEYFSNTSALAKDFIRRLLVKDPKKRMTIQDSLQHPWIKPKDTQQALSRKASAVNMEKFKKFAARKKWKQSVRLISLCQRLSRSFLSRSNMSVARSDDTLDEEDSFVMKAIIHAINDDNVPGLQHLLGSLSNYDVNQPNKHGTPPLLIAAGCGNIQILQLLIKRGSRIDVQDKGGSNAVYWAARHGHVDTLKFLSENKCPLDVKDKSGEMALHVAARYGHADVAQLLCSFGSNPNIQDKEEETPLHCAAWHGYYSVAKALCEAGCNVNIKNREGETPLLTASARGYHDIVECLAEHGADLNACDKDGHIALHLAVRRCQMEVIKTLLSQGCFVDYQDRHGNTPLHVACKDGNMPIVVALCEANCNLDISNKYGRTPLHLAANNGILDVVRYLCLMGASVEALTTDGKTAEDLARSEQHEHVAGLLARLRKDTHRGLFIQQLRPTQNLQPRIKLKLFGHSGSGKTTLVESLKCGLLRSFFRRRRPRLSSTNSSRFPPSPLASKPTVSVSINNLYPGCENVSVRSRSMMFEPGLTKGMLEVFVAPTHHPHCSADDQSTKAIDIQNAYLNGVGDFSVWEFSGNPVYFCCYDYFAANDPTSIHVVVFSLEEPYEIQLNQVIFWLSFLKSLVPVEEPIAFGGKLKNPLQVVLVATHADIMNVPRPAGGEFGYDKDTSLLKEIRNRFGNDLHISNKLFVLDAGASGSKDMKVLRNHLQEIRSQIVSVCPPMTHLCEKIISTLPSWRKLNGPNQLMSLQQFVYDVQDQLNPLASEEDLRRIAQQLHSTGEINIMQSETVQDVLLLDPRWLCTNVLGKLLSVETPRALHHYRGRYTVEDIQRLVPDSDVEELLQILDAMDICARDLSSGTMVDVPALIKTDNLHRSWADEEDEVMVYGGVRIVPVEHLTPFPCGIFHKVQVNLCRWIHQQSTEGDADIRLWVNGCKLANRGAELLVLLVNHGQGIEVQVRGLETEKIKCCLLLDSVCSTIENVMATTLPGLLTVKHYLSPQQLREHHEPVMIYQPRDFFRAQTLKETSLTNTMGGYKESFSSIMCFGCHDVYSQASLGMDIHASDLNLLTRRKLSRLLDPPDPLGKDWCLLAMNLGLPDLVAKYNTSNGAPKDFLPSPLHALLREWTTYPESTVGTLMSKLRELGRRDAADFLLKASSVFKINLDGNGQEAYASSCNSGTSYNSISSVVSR

Compound: CC[C@H](C)N1C=C(C2=C(C=C(C=C21)C3=CN=C(C=C3)N4CCNCC4)C(=O)NCC5=C(C=C(NC5=O)C)C)C
Test: log2 fold change, soluble protein after heating vs DMSO (PISA); higher = thermal stabilisation; K562 cells, 10 uM, 30 min; active = over 0.2 and 3.5 SD of the protein, either way, in both replicates (recomputed)
Method in brief: (§1)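 K562 cells at 2×10^6 cells/mL were given 10 μM compound for 30 min. Aliquots then went through 3 min of heating across 48°C-58°C, were pooled, and were extracted in PBS with 0.5% NP-40 at 4°C, and the supernatant after 21,000xg for 90 min was quantified by TMTpro 16plex LC-MS/MS with channel sums equalised. Thermal stability relative to control samples, from duplicates, is given as log2 fold change.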

log2 fold change, inactive:
DCTN5 (UniProt Q9BTE1) 0.008, CTU1 (UniProt Q7Z7A3) 0.026, CYSTM1 (UniProt Q9H1C7) 0.015, DCAF4 (UniProt Q8WV16) -0.075, CYB5A (UniProt P00167) -0.056, DCUN1D1 (UniProt Q96GG9) 0.018, DCAF6 isoform 3 (UniProt Q58WW2) -0.064, CSRP3 (UniProt P50461) -0.062, DCAF4L2 (UniProt Q8NA75) -0.129, DBNL isoform 3 (UniProt Q9UJU6) 0.031, CTSZ (UniProt Q9UBR2) -0.058, DCTN1 isoform 4 (UniProt Q14203) 0.078, CYBA (UniProt P13498) -0.026, CT55 (UniProt Q8WUE5) -0.044, DCAF13 (UniProt Q9NV06) 0.03, CYB561A3 isoform 2 (UniProt Q8NBI2) -0.089, DBT (UniProt P11182) -0.01, DBN1 isoform 3 (UniProt Q16643) 0.089, CTSH (UniProt P09668) 0.008, CTSC (UniProt P53634) -0.034, DAXX (UniProt Q9UER7) 0.204, DCAF16 (UniProt Q9NXF7) 0.06, CSTF2 (UniProt P33240) -0.024, CTSB (UniProt P07858) -0.009, DCTPP1 (UniProt Q9H773) -0.059, CWC25 (UniProt Q9NXE8) 0.085, DAB2 (UniProt P98082) 0.042, CYP51A1 (UniProt Q16850) 0.052, CTSA (UniProt P10619) -0.037, CUX1 isoform 3 (UniProt P39880) 0.036

Compound: CC[C@H](C)[C@@H](C(=O)N[C@@H]([C@@H](C)O)C(=O)N[C@@H](CC(C)C)C(=O)[C@]1(CO1)C)NC(=O)[C@H]([C@@H](C)CC)N(C)C(=O)C [epoxomicin]
Test: as above
Method in brief: as §1

log2 fold change, inactive:
CTU1 (UniProt Q7Z7A3) 0.045, DCAF4 (UniProt Q8WV16) 0.041, CYB5A (UniProt P00167) 0.057, DCUN1D1 (UniProt Q96GG9) 0.048, DCAF6 isoform 3 (UniProt Q58WW2) 0.025, CTR9 (UniProt Q6PD62) 0.162, DBNL isoform 3 (UniProt Q9UJU6) 0.012, CTSZ (UniProt Q9UBR2) 0.02, DCTN1 isoform 4 (UniProt Q14203) 0.02, CYBA (UniProt P13498) 0.037, CT55 (UniProt Q8WUE5) -0.018, DCAF13 (UniProt Q9NV06) -0.24, DBT (UniProt P11182) -0.022, DBN1 isoform 3 (UniProt Q16643) -0.014, CTSH (UniProt P09668) -0.022, DCP2 (UniProt Q8IU60) -0.04, CTSC (UniProt P53634) 0.023, CTNND1 (UniProt O60716) -0.269, DCAF16 (UniProt Q9NXF7) 0.032, CSTF2 (UniProt P33240) -0.077, CTSB (UniProt P07858) -0.011, DAPK1 isoform 3 (UniProt P53355) -0.057, DCTPP1 (UniProt Q9H773) 0.062, CTIF (UniProt O43310) 0.033, CWC25 (UniProt Q9NXE8) -0.101, DAB2 (UniProt P98082) -0.004, CYP51A1 (UniProt Q16850) -0.061, CTSA (UniProt P10619) -0.003, CUX1 isoform 3 (UniProt P39880) 0.027
